The full ranking holds about 33,000 sequences; the median of “E-score (-0.5 to 0.5)” is about -0.016, and the highest 2% start at about 0.3. The list shows a part of the results.
What follows are sequences tested against T1, Yer184c (UniProt P39961) (assay: PBM E-score (8-mer binding enrichment) (E-score (-0.5 to 0.5)); higher = stronger / more preferred TF binding). Conditions: protein concentration: 100 nM; construct: GST-full length.
T1 sequence: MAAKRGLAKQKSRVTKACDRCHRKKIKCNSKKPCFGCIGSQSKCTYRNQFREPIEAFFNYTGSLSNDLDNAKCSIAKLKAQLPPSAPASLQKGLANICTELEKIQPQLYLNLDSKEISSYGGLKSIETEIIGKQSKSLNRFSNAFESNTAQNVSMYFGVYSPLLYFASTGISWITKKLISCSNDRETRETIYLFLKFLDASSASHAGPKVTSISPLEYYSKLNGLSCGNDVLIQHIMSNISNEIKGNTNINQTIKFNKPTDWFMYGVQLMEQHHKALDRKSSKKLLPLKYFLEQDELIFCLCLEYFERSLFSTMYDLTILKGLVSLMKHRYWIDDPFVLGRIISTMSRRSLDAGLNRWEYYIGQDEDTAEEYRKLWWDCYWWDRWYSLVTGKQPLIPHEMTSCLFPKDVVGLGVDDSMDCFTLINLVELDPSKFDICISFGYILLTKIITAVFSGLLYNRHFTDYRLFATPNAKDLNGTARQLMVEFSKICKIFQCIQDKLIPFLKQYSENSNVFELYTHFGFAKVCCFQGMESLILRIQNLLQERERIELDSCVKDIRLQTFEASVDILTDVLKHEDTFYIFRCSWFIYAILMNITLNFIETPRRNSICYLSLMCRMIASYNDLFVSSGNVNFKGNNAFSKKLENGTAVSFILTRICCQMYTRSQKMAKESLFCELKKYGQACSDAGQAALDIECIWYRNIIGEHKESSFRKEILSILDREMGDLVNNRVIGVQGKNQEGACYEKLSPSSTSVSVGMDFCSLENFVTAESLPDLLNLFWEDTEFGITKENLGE
Outline: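 The E-score, a modified Wilcoxon-Mann-Whitney statistic, was computed by the Universal PBM Analysis Suite for every ungapped eight-base word pooled with its reverse complement. Scans behind it were normalised with masliner after bound GST-tagged yeast transcription factors were detected with fluorescent anti-GST. The proteins, at about 100-200 nM, had been applied to universal all-10-mer Agilent arrays made double-stranded by primer extension.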

Row | Sequence | PBM E-score
1 | ACGTTTAG | -0.0604
2 | GCCAATTA | 0.0492
3 | CGTGTGTC | -0.0493
4 | ATGCTTCG | 0.0835
5 | ACAGGATC | -0.217
6 | GGGCTTCA | -0.255
7 | CAAACGCG | 0.133
8 | ATAGTCAG | -0.05
9 | GCGTTAGA | -0.00877
10 | AATTAACG | 0.255
11 | AACGCGAC | -0.144
12 | ATTACCTC | -0.0265
13 | ATGCAAAG | -0.00638
14 | ACAATAAT | 0.18
15 | CGACCTCG | -0.0922
16 | ACTGAAGC | 0.0345
17 | CACTCCTG | -0.101
18 | TCACGAGA | -0.19
19 | GCACCAGA | -0.115
20 | AGCCGCAA | 0.0665
21 | CCGCTTTC | -0.00893
22 | ACCCGGAA | 0.346
23 | CTGAAGGC | -0.204
24 | TATTTAGA | 0.22
25 | GTCTAGAA | 0.139

Row | Sequence | PBM E-score
26 | CATCCCCG | 0.0463
27 | CAAAATTC | 0.262
28 | ATGATAGC | 0.138
29 | GAAAGTCA | 0.0864
30 | AAAGCCCA | -0.0201
31 | AAGAATTA | 0.134
32 | CCATTGTA | 0.0103
33 | TACAAGCA | 0.0494
34 | TGCCGACA | 0.222
35 | AATGCACT | -0.0333
36 | ACGTATAT | -0.0477
37 | CCCGAAAC | 0.0699
38 | ATCTGGTC | -0.13
39 | TGATGCAA | -0.0409
40 | GACAAACA | -0.0145
41 | ATGCGAAT | 0.0466
42 | GAAAATGA | 0.113
43 | AATAATGA | 0.123
44 | CCTTAGCC | -0.0184
45 | TCTAAAGA | 0.18
46 | AACCTTAT | -0.16
47 | AACGGATA | 0.374
48 | CCAGTCAA | -0.12
49 | ACGGGCAC | -0.161
50 | CGCGAGGC | -0.0394

Pulled one by one from above (four):
Row | Sequence | PBM E-score
32 | CCATTGTA | 0.0103
20 | AGCCGCAA | 0.0665
14 | ACAATAAT | 0.18
22 | ACCCGGAA | 0.346

Continuation.

Row | Sequence | PBM E-score
51 | AATAGATC | 0.142
52 | CTGCCAAA | 0.152
53 | CGATTCTA | -0.0583
54 | AAAAGTCC | 0.0531
55 | AGTCCACT | -0.231
56 | AAGAAGGT | 0.0836
57 | CTACCGCC | -0.121
58 | AAGTCATC | -0.131
59 | AAGAACGG | -0.015
60 | AGAAGGCC | 0.0148
61 | AGACCAAG | 0.013
62 | GAATGCAA | -0.0488
63 | ACCGGTAC | 0.0388
64 | TGGAGGAA | -0.077
65 | CGATAAGC | -0.0115
66 | AGATAGGG | -0.134
67 | AGGCATCC | -0.248
68 | ATTTCCCA | 0.107
69 | ATAACACG | 0.0108
70 | GGAAGTTA | 0.294
71 | AATCAAAC | 0.109
72 | CCCCCCGG | -0.178
73 | GGTTCATA | 0.0452
74 | CGATCTAC | 0.0399
75 | GTTGCTAA | 0.191

Row | Sequence | PBM E-score
76 | CTGTGAAG | -0.0496
77 | CCCTGTGA | -0.207
78 | CCTGTTAC | -0.161
79 | CGAACAGC | -0.0365
80 | ATTGCAAG | -0.0154
81 | AGATCACA | -0.0542
82 | AAGGCTAT | -0.0663
83 | CATGTGGC | 0.0205
84 | CCCGAAAG | 0.0941
85 | AGGCAGAA | -0.033
86 | AGAGATCC | -0.00438
87 | CTAGCCGC | 0.127
88 | CCACTTAC | -0.0905
89 | ACTACAAT | 0.174
90 | GGCGCGCC | 0.174
91 | AGAGCAAG | 0.113
92 | ACACGAGT | -0.015
93 | GGCCACCA | 0.0491
94 | CGTCCATA | 0.0384
95 | GCGGTATA | 0.0139
96 | CGGAATTA | 0.352
97 | CCCGTTCA | -0.183
98 | ACCTGATA | -0.00294
99 | CCAACAGG | -0.295
100 | CTATATAC | 0.247

Row | Sequence | PBM E-score
101 | TTGACAAA | 0.206
102 | AAAGGGGG | -0.155
103 | GGTACTAA | -0.00623
104 | ACAATCGT | -0.28
105 | GTGGCTAA | 0.0584
106 | CCAAGCGG | -0.15
107 | ACGATCCC | -0.162
108 | AACAGATC | 0.171
109 | GTTGGCTA | -0.0541
110 | ACGCGCCC | -0.0103
111 | GGGTTACC | -0.301
112 | CCATTATC | 0.096
113 | CCAGTCCG | -0.0409
114 | AGGCTTAT | -0.0828
115 | ATAACGGA | 0.278
116 | ATAGCCTA | -0.0458
117 | CGTGCAAC | -0.073
118 | GTCTTAGA | 0.0182
119 | AATACAGG | -0.0293
120 | GCTGCTAA | 0.0262
121 | CCTGGGGC | -0.249
122 | AACTGCTC | -0.0494
123 | CGCTCTCC | -0.13
124 | ACATGAAT | -0.053
125 | CCCCTCCA | -0.219

Row | Sequence | PBM E-score
126 | AGATTCCC | -0.0681
127 | ACGATGGG | -0.253
128 | CTATAACA | -0.0394
129 | CATTTCAC | 0.0692
130 | TAATCAGA | 0.0801
131 | CTCCGCAC | 0.0881
132 | GCCCTCAC | -0.211
133 | CATCTGCC | -0.22
134 | CTAACGAA | 0.186
135 | CTGTTCGA | 0.0676
136 | GGGTGAAC | 0.0772
137 | AAGTGATT | 0.0525
138 | ATTCCTCC | 0.043
139 | GACTTTTA | -0.0835
140 | CTGTTGCC | -0.123
141 | ATAGACCG | 0.0754
142 | CTTCGCTC | -0.0449
143 | CTGCCGTC | -0.066
144 | GAAATCCA | 0.0984
145 | GGTTAATA | 0.182
146 | CAGCTGGG | -0.116
147 | AGGGACTG | -0.316
148 | ATACGCGG | -0.0243
149 | GTGTTTAA | 0.174
150 | ACGATTAG | 0.0575

Row | Sequence | PBM E-score
151 | GCAAAAGA | -0.0659
152 | ATAGCCCG | -0.0476
153 | ATCAGATC | -9e-05
154 | CAATTGTA | 0.0264
155 | ACAACCCC | -0.288
156 | GATGGTAC | -0.0161
157 | AGACTACC | -0.00986
158 | ATCAAACC | 0.074
159 | GCATAGCC | -0.165
160 | AACGAGTA | 0.0483
161 | CGTGGATA | 0.0338
162 | ATCCAGTC | -0.0403
163 | AAGCGGTC | 0.03
164 | ACGTTCAG | -0.198
165 | GCGGTACA | 0.111
166 | AGCACACT | 0.00523
167 | CTGTTCGC | 0.142
168 | GTTACTAA | 0.0988
169 | GCCCACCC | -0.139
170 | CTGGGGTA | -0.223
171 | ATACCGTA | 0.0977
172 | GGGTCTAA | -0.0506
173 | GTCGGGTA | 0.0546
174 | CTTAGATA | 0.0883
175 | ATGGCCAT | -0.101

Copied from above: nos. 13–19
Row | Sequence | PBM E-score
13 | ATGCAAAG | -0.00638
14 | ACAATAAT | 0.18
15 | CGACCTCG | -0.0922
16 | ACTGAAGC | 0.0345
17 | CACTCCTG | -0.101
18 | TCACGAGA | -0.19
19 | GCACCAGA | -0.115

More records follow.

Row | Sequence | PBM E-score
176 | AATCGCCT | 0.0835
177 | AACGCTCG | 0.122
178 | CCAAACTC | 0.00969
179 | GATGGGGC | -0.212
180 | ACCCGCGC | 0.242
181 | CGACCTAC | -0.186
182 | GGCCTACA | -0.0193
183 | CCGTACAG | 0.0195
184 | AAAATCGC | 0.104
185 | CGGGGAAC | 0.0883
186 | ACGGCAGG | -0.117
187 | GTATATGA | 0.116
188 | ATTTACTA | 0.172
189 | CCGGATAA | 0.4
190 | GGGTTCAA | 0.0459
191 | ATTTTTCG | 0.314
192 | CTCTCCCA | -0.211
193 | GTTGGAGA | 0.0278
194 | GTTGTGAA | 0.0223
195 | ACGGGAAT | 0.0267
196 | CTATTGTC | -0.0946
197 | ACCAAGTA | 0.0379
198 | TCCTCTCA | -0.228
199 | GATGGAAA | -0.0163
200 | TGTTCAAA | 0.15

Row | Sequence | PBM E-score
201 | AGGTGTCA | 0.0413
202 | GGGTGCGA | -0.227
203 | AAAAATCA | 0.0944
204 | GTTCAGGA | -0.0568
205 | CCATACAA | 0.0684
206 | CCGAAAAA | 0.371
207 | CAAATTAC | 0.0501
208 | GAGACGAC | 0.0818
209 | CTTAGGAA | 0.12
210 | GACGTTAA | 0.0643
211 | TCAACTAA | 0.118
212 | ACGATAGG | -0.119
213 | AGAGTAAC | 0.0419
214 | AACTTAGG | 0.123
215 | GTCTGGCA | -0.16
216 | TGTGTAAA | 0.27
217 | ACCGTAGT | 0.127
218 | AACAATCA | 0.261
219 | AAACCCAA | 0.0937

— the supplement of paper PMC3334620
